Data as given in the supplement of paper PMC12578635.
The list shows a part of the results. Cut-off read from the data, not from the text of the source: active = 150% or more and inactive = the rest. Single values are uncertain, as repeats are few or missing.

system: Staphylococcus aureus JE2-lux inside RAW 264.7 macrophages; experiment: intracellular bacterial bioluminescence relative to DMSO vehicle; higher = higher intracellular bacterial metabolic activity; conditions: 10 µM; treatment time 4 h; gentamicin 50 µg/ml

SMILES	intracellular bacterial bioluminescence
NC(=O)COc1ccc2c(-c3cc4cc(Cl)ccc4oc3=O)cc(=O)oc2c1	inactive: 121%
N=C1N=C(O)NC(=O)/C1=N/Nc1cccc(Br)c1	inactive: 123%
O=C1Nc2ccc(CNS(=O)(=O)c3ccccc3)c3cccc1c23	inactive: 98.2%
CCc1c(C)nc2ncnn2c1Sc1ccc(N(C)C)cc1	inactive: 79.5%
O=C(Cc1ccc(Cl)cc1)Oc1coc(CSc2ncccn2)cc1=O	inactive: 114%
Cn1c2ccc(F)cc2c2nnc(SCC(=O)N3CCCc4ccccc43)nc21	inactive: 68.7%
COC(=O)CSc1ncnc2c1cnn2-c1ccc(F)cc1	inactive: 74.2%
Cc1cccc2c(O)c(C(=O)NCCN3CCOCC3)cnc12	inactive: 103%
CSc1nc2ccc3nc(NC(=O)c4cc5ccccc5oc4=O)sc3c2s1	inactive: 84.7%
Cc1cc(CNC(=O)Cn2cnc3sc(C)cc3c2=O)c2[nH]c(C)c(C)c2c1	inactive: 83.9%
O=C(Cn1nc(-c2ccccc2)c2cnc3ccc(F)cc3c21)NC1CCCC1	inactive: 113%
C=CCN1C(=O)SC(CC(=O)Nc2ccc(C)cc2)C1=O (stereo not given)	inactive: 97.7%
Cc1ccc(COc2ccc([N+](=O)[O-])cc2/C=C2\SC(=O)NC2=S)cc1	inactive: 112%
COc1ccc2[nH]c3nc(SCC(=O)Nc4ccc(C(=O)NC5CC5)cc4)nnc3c2c1	inactive: 90.1%
Cc1ccccc1C(=O)NC1CC2CCCC(C1)N2C(=S)Nc1ccccc1 (stereo not given)	inactive: 113%
O=C(NCCc1csc(-c2ccc(C(F)(F)F)cc2)n1)c1ccc2c(c1)OCO2	inactive: 117%
Cc1ccc(C(=O)Nc2cc3c4c(c2)CCN4C(=O)CC3)cc1C	active: 156%
CC(=O)c1cccc(NC(=O)CSc2nnc(Cn3nnc4ccccc43)n2C)c1	inactive: 99.3%
CCCn1c(=O)c(=O)[nH]c2cc(-c3noc(COc4ccccc4)n3)ccc21	inactive: 24.5%
O=C1C(=O)N(CCOc2ccc(Cl)cc2)c2ccccc21	inactive: 83.8%
O=C(NCc1ccccc1)N1CCCC1c1nc(-c2cnccn2)n[nH]1 (stereo not given)	inactive: 101%
CC1CCN(S(=O)(=O)c2ccc(NC(=S)NC(=O)C3CC3)cc2)CC1	inactive: 77.9%
CCOc1ccc2nc(NC(=O)CSc3nnc4c(n3)[nH]c3ccccc34)sc2c1	active: 167%

SMILES	intracellular bacterial bioluminescence
Cc1ccc(Nc2c(C(=O)NC(C)CCc3ccccc3)cnc3c2c(C)nn3C)cc1 (stereo not given)	inactive: 24.1%
Cc1ccc(C)c(S(=O)(=O)NCCn2c(C(F)(F)F)nc3cccnc32)c1	active: 163%
CCOc1ccccc1-n1nnc(C(=O)Nc2ccc(C(=O)O)cc2)c1C	inactive: 83.4%
CCOc1ccc2ncc3c(-c4ccccc4)nn(CC(=O)Nc4cccc(F)c4)c3c2c1	inactive: 98.3%
COc1ccc(S(=O)(=O)c2cn(CC(=O)Nc3ccccc3)c3ccc(Cl)cc3c2=O)cc1	inactive: 93.3%
Cc1cc2c(=O)n(Cc3ccco3)c(SCc3cc(O)[nH]n3)nc2s1	inactive: 82.4%
Cc1ccc(C)c(-c2nn(-c3ccccc3)cc2/C=C(/C#N)c2nc3ccccc3c(=O)[nH]2)c1	inactive: 102%
CCOC(=O)C1=C(N)Oc2c(oc(CO)cc2=O)C1c1ccccc1 (stereo not given)	inactive: 123%
O=C(Nc1ccc(-c2ccc(NC(=O)c3cccs3)cc2)cc1)c1cccs1	inactive: 111%
CCCCOC(=O)Nc1[nH]c(C)c(C(=O)OCC)c1C	inactive: 95.4%
Brc1cccc2sc(N3CCCC3)nc12	inactive: 101%
CCC(=O)Nc1cccnc1-c1ccc(C(=O)Nc2ccc(OC)c(Cl)c2)cc1	inactive: 101%
CCOC(=O)c1nc(Nc2ccc(C)c(Cl)c2)c2c(C)c(C)n(-c3ccccc3)c2n1	inactive: 93%
CCS(=O)(=O)Nc1ccc(-c2nnc(SCC(=O)Nc3cccc(O)c3)o2)cc1	inactive: 94.2%
Cc1cc2nc(C3CCN(C(=S)Nc4ccc(F)cc4)CC3)[nH]c2cc1C	inactive: 76.9%
O=C(CSc1cnc2ccccc2n1)NCc1ccc2c(c1)OCO2	inactive: 102%
Cn1c(=O)n(CC(=O)N2CCCC2)c(=O)c2cc(S(=O)(=O)Nc3cccc4c3CCCC4)ccc21	inactive: 68.2%
O=C1CCc2cc(S(=O)(=O)NC3CCN(Cc4ccccc4)C3)ccc2N1 (stereo not given)	inactive: 106%
O=C(Nc1c(C(=O)Nc2ccc3c(c2)OCCO3)oc2ccccc12)c1ccccc1C(F)(F)F	inactive: 50%
Cc1cc2ccccc2n2c(=O)n(CCNC(=O)c3[nH]ncc3Br)nc12	inactive: 81.9%
NC(=O)c1cc2ccccc2o/c1=N\NC(=O)c1ccncc1	inactive: 105%
CC(C)c1ccc(NC(=O)CCn2c(=O)oc3ccccc32)cc1	inactive: 38.1%

Filtered by structure, those above containing a furan ring, fused or not
SMILES	intracellular bacterial bioluminescence
Cc1cc2c(=O)n(Cc3ccco3)c(SCc3cc(O)[nH]n3)nc2s1	inactive: 82.4%
O=C(Nc1c(C(=O)Nc2ccc3c(c2)OCCO3)oc2ccccc12)c1ccccc1C(F)(F)F	inactive: 50%
